Test results from patent US20180030537A1, “PUMA, A PRO-APOPTOTIC GENE, AS A NOVEL MOLECULAR BIOMARKER FOR TNFALPHA-INDUCED HUMAN ISLET DAMAGE” (CITY OF HOPE, priority 2010, published 2018).
At least one compound was matched to its structure with a doubt left.

System: human islets
Assay: Drug compound screening in single human islets: TNF-α induced PUMA, IL-8 and TNF mRNA
Format: cell-based
Settings: pre-incubation 1 hour, 10 μM (Etanercept 0.1 μg/mL), then 5 ng/mL TNF-α 4 hours, vs control (vehicle alone); for TNF-α induced up regulation of PUMA mRNA (% ACTB): FIG. 4A; for TNF-α induced up regulation of IL-8 mRNA (% ACTB): FIG. 4B; for TNF-α induced up regulation of endogenous TNF mRNA (% ACTB): FIG. 4C
Procedure: FIGS. 4A-C. PUMA, IL-8 and TNF-α are used as markers to screen drug compounds protecting islets from TNF-α stimulus. Single human islets in hextuplicate were pre-incubated with various drugs (all used at 10 μM except Etanercept (0.1μ/ml)) or solvent (DMSO) at 37° C. for 1 hour, followed by stimulation with or without 5 ng/ml of TNF-α for an additional 4 hours. FIG. 4A: PUMA and ACTB mRNA were quantified and the results are expressed as % ACTB (*p<0.05 vs. control islets with TNF-α). FIG. 4B: IL-8 was quantified and the results are expressed as % ACTB. FIG. 4C: Endogenous TNF-α was quantified and the results are expressed as % ACTB. Together, the results of FIGS. 4A-C show an example of a compound screening system using PUMA, IL-8 and TNF mRNA.
Human islets and acinar cells isolated for research use were obtained from the Southern California Islet Cell Resources (SC-ICR) Center, Beckman Research Institute of the City of Hope (Duarte, Calif.) 1 to 3 days after isolation. The donor age ranged from 18 to 67 (48±14) years and included both sexes. Islet preparations with >70% purity and >90% viability were used. The use of human islets and acinar cells in this study was approved by the Institutional Review Board of the City of Hope. For mRNA experiments, islets between 150 μm to 300 μm in diameter (medium size islet) were handpicked in hexuplicate by experienced personnel under a dissection microscope without staining. Each handpicked islet was cultured individually in a non-tissue culture treated 96 well plate (Sarstedt, Newton, N.C.) with a CMRL (Mediatech Inc., Holly Hill, Fla.) based serum-free medium, which is used to culture human islets for clinical transplantation. Islets were treated with or without recombinant human TNF-α (0, 1, 5, 50 ng/mL) and/or recombinant human IFNγ (0, 10, 100, 1000 U/mL) for up to 16 hours. For other islet experiments, 500 to 1000 islet equivalent (IEQ) were cultured (500 IEQ/mL of medium) in a Petri dish for up to 24 hours in the same condition described above unless otherwise specified. For acinar cell experiments, acinar cells were kept in islet culture medium at 4° C. immediately after the isolation and used within 24 hours. Aliquots of 5-10 acinar cell clusters in triplicates were cultured with islet culture medium with or without TNF-α for up to 16 hours. For drug compound screening experiments, islets were pre-incubated with Etanercept, FK506, Cyclosporine (CsA), Rapamycin, Imatinib mesylate, Janus Kinase (JAK) inhibitor or p38 inhibitor, SB203580, for 1 hour, and then 5 ng/mL TNF-α was added to the islet culture for 4 hours. All the compounds except Etanercept (0.1 μg/mL) were dissolved in dimethyl sulfoxide (DMSO) and used at a concentration of 10 μM (all compounds are gifts from Hitachi Chemical Research Center).
RNA purification and PCR was performed as described previously (32). Briefly, following culture, islets were transferred to a 96-well filter plate (Hitachi Chemical Research Center-HCR, Irvine, Calif.)(44) and 50 μL of Lysis Buffer (HCR) containing a cocktail of specific reverse primers was applied to each well. Poly(A)+mRNA isolation was performed using the Hem(A)+™ System (Hitachi Chemical Research Center, Irvine, Calif.). The resultant cell lysates were transferred to oligo(dT)-immobilized microplates (GenePlate, HCR) for poly(A)^+ mRNA purification (45). The cDNA was directly synthesized with 30 μL of solution in each well: specific primer-primed cDNA in the liquid phase and oligo(dT)-primed cDNA in the solid phase (44). The cDNA in the solution was diluted by adding 30 μL nuclease-free water, with 4 μL of the diluted cDNA used for SYBR Green PCR (BioRad, Hercules, Calif.) (46). Each gene was amplified individually. The cycle threshold (Ct) was determined using analytical software (SDS, Applied Biosystems, Foster City, Calif.). Differences in Ct between the target and control mRNA (ΔCt) are used to quantify the relative amount of each target, calculated as 2^−ΔCt. […]

C=CC[C@@H]1/C=C(\C)C[C@H](C)C[C@H](OC)[C@H]2O[C@@](O)(C(=O)C(=O)N3CCCC[C@H]3C(=O)O[C@H](/C(C)=C/[C@@H]3CC[C@@H](O)[C@H](OC)C3)[C@H](C)[C@@H](O)CC1=O)[C@H](C)C[C@@H]2OC [FK506]
showed no suppression: TNF-α induced up regulation of PUMA mRNA (% ACTB) | TNF-α induced up regulation of IL-8 mRNA (% ACTB) | TNF-α induced up regulation of endogenous TNF mRNA (% ACTB)

CO[C@H]1C[C@@H]2CC[C@@H](C)[C@@](O)(O2)C(=O)C(=O)N2CCCC[C@H]2C(=O)O[C@H]([C@H](C)C[C@@H]2CC[C@@H](O)[C@H](OC)C2)CC(=O)[C@H](C)/C=C(\C)[C@@H](O)[C@@H](OC)C(=O)[C@H](C)C[C@H](C)/C=C/C=C/C=C/1C [Rapamicin, Rapamycin]
showed no suppression: TNF-α induced up regulation of PUMA mRNA (% ACTB) | TNF-α induced up regulation of IL-8 mRNA (% ACTB) | TNF-α induced up regulation of endogenous TNF mRNA (% ACTB)
